Binding data for four molecules are collected here from publication PMC11972349.

Protein sequences, listed by entry. Tags and fused reporters are not part of them.
UniProt Q9Y572: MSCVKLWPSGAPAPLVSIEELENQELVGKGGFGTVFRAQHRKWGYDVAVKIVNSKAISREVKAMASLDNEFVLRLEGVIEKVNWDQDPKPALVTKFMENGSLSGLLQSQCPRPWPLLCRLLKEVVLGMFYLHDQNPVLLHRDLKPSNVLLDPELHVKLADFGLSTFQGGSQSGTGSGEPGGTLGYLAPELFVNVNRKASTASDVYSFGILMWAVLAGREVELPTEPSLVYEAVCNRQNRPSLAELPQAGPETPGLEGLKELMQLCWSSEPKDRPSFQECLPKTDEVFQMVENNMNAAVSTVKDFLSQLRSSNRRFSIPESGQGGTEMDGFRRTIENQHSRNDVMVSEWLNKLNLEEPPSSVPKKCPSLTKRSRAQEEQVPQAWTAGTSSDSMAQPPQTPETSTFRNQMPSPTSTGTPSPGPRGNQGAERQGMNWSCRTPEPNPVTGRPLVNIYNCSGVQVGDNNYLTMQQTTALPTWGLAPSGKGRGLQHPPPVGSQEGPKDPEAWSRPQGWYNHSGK

Test in all cases: co-IP; HBE cells treated with 200 ug/ml LPS for 48 h; IP lysis solution with protease and phosphatase inhibitors; 750 ug protein with protein A/G agarose and anti-p-MLKL, anti-p-RIPK1 or anti-p-RIPK3 (IgG as control) overnight at 4 °C; washed five times; western blotting
Assay [1] concerns the target phosphorylated RIPK3 (human (endogenous in HBE)) (UniProt Q9Y572).
In assay [2] the target is phosphorylated RIPK1 (human (endogenous in HBE)) (UniProt Q13546).
Assay [3] deals with T1, phosphorylated RIPK1 (human (endogenous in HBE)), Q13546.
T1 chain: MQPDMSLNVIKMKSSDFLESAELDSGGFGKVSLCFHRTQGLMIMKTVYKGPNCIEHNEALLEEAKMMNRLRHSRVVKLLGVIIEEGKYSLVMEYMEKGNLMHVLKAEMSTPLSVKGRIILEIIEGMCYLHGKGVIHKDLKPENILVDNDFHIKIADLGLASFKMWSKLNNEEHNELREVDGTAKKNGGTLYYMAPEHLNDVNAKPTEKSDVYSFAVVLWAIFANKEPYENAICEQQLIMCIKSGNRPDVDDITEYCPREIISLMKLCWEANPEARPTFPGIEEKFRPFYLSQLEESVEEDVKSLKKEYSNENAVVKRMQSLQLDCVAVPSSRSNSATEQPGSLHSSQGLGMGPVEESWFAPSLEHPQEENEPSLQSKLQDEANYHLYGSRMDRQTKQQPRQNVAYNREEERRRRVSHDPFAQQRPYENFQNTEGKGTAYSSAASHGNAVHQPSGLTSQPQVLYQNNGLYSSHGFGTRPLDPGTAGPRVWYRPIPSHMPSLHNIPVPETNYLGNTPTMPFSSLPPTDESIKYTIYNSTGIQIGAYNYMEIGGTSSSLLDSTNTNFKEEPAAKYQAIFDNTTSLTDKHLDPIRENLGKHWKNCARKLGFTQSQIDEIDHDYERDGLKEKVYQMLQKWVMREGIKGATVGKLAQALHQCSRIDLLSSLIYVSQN
Particulars: remark: other sources report otherwise.

Assay [4] concerns the target T2, phosphorylated MLKL (human (endogenous in HBE)), Q8NB16.
T2 chain: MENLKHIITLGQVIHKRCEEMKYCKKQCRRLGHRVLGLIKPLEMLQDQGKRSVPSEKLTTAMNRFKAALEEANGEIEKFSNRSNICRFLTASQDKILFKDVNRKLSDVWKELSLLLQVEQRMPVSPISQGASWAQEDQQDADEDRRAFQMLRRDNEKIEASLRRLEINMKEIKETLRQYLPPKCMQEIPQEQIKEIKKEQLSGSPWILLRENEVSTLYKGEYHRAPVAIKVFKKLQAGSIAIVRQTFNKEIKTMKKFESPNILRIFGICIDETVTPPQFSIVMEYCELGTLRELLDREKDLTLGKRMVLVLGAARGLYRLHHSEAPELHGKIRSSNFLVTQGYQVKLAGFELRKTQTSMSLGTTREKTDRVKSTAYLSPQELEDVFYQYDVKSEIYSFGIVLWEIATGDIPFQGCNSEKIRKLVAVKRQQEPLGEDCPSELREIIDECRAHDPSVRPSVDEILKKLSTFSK
Particulars: remark: other sources report otherwise.

No constants are given. Whether binding was seen depends on the method and setting. In cells and extracts the contact can be indirect. Some entries that bind do so weakly or less than the wild type.

Regarding “phosphorylated RIPK1 (from UniProt Q13546 1-671)”, the binding result in assay [1] was “binds”.

With “phosphorylated RIPK3 (from UniProt Q9Y572 1-518)”, in assay [2], the binding entry was “binds”.

B1: phosphorylated MLKL, Q8NB16 1-471 (protein)
chain: T2 chain
modifications: here or on the partner: phosphorylated (p-MLKL); phosphorylated residue not given; phosphorylated (p-RIPK1); phosphorylated residue not given
As for B1, the binding entry in assay [3] is listed as “binds”.

B2: phosphorylated RIPK1, Q13546 1-671 (protein)
chain: T1 chain
modifications: here or on the partner: phosphorylated (p-RIPK1); phosphorylated residue not given; phosphorylated (p-MLKL); phosphorylated residue not given
In the case of B2, the binding entry in assay [4] was “binds”.
